Values of other authors, collected in patent US20240043489A1, “Cytokine Prodrugs Comprising a Cleavable Linker” (Trutino Biosciences Inc., priority 2020, published 2024).
pKd: −log10 of the molar value. The match of structure and compound is tentative.

Sequences of proteins named here, by UniProt entry; tags and fusion partners are left off. Residues count along the entry.
UniProt P02452, 162-1218 limits assumed: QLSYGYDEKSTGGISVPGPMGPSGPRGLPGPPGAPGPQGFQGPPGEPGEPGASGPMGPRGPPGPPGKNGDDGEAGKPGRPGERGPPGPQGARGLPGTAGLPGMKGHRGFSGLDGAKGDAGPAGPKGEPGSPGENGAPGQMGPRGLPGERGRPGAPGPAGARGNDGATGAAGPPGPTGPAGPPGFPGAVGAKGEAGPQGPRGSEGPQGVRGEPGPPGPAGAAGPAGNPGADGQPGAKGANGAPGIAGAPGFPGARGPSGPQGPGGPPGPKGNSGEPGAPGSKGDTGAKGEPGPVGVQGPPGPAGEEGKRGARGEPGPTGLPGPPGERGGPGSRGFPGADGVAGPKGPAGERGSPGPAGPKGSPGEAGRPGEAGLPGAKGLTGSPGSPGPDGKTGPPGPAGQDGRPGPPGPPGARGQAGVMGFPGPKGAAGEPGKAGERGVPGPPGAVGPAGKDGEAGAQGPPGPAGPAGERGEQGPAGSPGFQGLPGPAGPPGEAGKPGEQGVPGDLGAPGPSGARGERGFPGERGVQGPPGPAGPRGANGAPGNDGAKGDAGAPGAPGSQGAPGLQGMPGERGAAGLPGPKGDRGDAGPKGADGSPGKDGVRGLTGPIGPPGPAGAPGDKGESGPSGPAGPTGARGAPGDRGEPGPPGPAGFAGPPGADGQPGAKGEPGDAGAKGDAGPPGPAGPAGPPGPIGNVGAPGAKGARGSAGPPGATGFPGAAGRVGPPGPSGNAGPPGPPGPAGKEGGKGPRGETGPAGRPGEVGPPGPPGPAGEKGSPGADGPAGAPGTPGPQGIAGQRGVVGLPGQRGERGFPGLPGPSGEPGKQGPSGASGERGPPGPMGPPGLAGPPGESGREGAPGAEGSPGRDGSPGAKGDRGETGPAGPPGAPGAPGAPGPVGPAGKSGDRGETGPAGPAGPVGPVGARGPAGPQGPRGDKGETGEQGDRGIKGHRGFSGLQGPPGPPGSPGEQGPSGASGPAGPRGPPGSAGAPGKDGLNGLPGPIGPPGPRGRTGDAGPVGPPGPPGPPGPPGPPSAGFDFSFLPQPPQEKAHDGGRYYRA
UniProt P08123, 80-1119 limits assumed: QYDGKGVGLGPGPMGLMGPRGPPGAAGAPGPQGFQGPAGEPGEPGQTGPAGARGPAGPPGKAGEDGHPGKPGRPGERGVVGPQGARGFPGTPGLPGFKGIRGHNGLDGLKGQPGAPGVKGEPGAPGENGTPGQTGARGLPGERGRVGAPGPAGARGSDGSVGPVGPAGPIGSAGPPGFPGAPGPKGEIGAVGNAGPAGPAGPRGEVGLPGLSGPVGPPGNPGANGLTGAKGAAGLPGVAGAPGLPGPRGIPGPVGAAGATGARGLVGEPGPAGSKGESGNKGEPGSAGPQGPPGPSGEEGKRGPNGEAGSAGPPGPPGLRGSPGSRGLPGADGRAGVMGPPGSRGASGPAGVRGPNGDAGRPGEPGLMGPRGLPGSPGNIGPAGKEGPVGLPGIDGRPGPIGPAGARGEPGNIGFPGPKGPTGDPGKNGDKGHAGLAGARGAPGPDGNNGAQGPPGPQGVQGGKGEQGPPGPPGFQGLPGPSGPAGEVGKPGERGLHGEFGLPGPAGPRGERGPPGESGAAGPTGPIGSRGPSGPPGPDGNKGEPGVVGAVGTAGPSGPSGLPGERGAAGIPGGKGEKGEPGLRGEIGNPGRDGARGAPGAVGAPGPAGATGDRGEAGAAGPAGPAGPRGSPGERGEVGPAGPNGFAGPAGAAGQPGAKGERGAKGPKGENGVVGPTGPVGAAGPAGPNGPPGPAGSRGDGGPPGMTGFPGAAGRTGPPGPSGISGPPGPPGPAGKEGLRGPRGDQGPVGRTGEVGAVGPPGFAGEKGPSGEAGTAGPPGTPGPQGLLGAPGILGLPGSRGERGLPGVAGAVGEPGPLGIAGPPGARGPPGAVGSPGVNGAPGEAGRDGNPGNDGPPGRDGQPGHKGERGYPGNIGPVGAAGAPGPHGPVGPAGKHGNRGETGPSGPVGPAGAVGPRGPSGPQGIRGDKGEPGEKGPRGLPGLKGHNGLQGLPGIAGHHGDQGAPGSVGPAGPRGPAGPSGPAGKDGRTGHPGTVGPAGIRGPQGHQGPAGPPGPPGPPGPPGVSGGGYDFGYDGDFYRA

Molecular target: Collagen type I (Homo sapiens, UniProt P02452+P08123)
Settings: binds to Collagen type I; Note 1 of Table 2; tight binding; cited from earlier work

CC[C@H](C)[C@H](NC(=O)[C@H](CS)NC(=O)[C@H](CCCCN)NC(=O)[C@H](Cc1ccc(O)cc1)NC(=O)[C@H](CC(C)C)NC(=O)[C@H](CCC(=O)O)NC(=O)CNC(=O)[C@H](C)NC(=O)[C@H](CCCCN)NC(=O)[C@H](CC(C)C)NC(=O)[C@H](C)NC(=O)[C@H](C)NC(=O)[C@H](CC(N)=O)NC(=O)[C@H](C)NC(=O)[C@H](CCCNC(=N)N)NC(=O)[C@@H](N)CCCNC(=N)N)C(=O)N[C@@H](CC(C)C)C(=O)N[C@@H](Cc1ccc(O)cc1)C(=O)NCC(=O)N[C@@H](CS)C(=O)O
pKd: 8.00
